Laboratory results taken from US20190194722, “METHOD” (Oxford Nanopore Technologies Ltd., published 2019).

Molecular target: T1, Hel308Mbu-E284C/S615C-STrEP(C) (Methanococcoides burtonii) (UniProt Q12WZ6)
T1 sequence: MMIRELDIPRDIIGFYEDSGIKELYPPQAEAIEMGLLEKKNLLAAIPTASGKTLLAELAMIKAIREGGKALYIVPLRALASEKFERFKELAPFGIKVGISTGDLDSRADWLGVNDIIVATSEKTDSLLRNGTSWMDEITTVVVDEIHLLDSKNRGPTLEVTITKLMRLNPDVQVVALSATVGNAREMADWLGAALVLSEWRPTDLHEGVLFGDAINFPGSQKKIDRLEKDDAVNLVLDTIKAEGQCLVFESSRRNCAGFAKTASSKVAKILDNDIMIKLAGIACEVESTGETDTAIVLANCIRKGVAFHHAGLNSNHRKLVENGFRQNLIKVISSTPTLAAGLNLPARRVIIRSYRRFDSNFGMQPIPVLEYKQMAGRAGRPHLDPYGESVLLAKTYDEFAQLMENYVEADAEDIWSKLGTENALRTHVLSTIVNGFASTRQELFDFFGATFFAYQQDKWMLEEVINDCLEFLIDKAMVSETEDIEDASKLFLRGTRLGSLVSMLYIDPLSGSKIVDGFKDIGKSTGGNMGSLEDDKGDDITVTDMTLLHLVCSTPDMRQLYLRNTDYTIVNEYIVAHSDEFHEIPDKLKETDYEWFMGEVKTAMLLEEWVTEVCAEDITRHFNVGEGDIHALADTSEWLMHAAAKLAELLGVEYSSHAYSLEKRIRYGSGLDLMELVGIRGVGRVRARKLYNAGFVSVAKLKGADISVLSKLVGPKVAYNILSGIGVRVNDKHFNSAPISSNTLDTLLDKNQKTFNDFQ
Test: activity assay
Details: helicase loads on 3' overhang and removes MuA from PhiX constructs; 1 uM enzyme, 10 mM ATP, 10 mM MgCl2, room temperature; purified recombinant protein

## GTTTTCGCATTTATCGTGAAACGCTTTCGCGTTTTTCGTGCGCCGCTTCA / GATCTGAAGCGGCGCACGAAAAACGCGAAAGCGTTTCACGATAAATGCGAAAACTTTTTTTTTT [transposon 2]
  activity on this sequence: active

Protein sequences can lack the tags named with them.
